In PMC8639918, “Mechanism of phosphate sensing and signaling revealed by rice SPX1-PHR2 complex structure” (Nature Communications, 2021):
These are yes or no findings as the source states them, for the method shown. Each block holds one substance with its values, some of them ahead of it.

By UniProt entry, the sequences of proteins in these tests, tags left out. Where a name states a change or a piece, a line headed by the entry shows the natural chain unless it says otherwise. Chains listed by the source or under a name are the forms on record and can include a tag or linker.
PHR2^230–426 I362A (Q6Z156, form named): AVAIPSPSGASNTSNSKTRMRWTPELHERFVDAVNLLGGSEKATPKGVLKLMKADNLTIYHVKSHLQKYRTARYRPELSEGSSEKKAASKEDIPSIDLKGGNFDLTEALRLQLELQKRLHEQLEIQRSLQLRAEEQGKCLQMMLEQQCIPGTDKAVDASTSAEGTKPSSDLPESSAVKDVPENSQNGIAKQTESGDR
PHR2^230–426 L348A (Q6Z156, form named): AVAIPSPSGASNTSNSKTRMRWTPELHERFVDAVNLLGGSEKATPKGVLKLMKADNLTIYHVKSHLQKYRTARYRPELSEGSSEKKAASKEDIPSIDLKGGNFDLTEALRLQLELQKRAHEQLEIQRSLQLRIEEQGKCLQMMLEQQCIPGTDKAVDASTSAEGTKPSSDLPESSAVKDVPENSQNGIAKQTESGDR
PHR2^230–426 L358A (Q6Z156, form named): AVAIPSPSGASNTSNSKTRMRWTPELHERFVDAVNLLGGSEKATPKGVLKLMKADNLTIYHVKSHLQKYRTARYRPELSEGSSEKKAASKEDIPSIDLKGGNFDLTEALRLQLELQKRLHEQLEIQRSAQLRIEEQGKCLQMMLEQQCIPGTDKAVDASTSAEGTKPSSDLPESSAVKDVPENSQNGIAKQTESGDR
PHR2^230–426 L344R/Q351R/Q355R (Q6Z156, form named): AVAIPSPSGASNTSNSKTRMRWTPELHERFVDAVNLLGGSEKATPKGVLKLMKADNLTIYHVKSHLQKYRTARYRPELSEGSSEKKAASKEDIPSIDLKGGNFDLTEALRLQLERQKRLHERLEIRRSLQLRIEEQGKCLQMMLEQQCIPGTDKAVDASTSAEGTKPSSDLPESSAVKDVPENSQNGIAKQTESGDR
PHR2^(230–426 L348A/L358A/I362A) (Q6Z156, form named): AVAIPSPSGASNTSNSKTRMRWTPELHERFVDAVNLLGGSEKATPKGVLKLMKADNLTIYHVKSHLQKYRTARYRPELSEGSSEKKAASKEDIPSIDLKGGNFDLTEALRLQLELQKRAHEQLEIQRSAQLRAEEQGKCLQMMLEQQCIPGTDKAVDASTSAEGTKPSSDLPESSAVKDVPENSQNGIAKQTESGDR

Columns and labels:
[1] = biological target: PHR2^230–426 I362A (rice) (UniProt Q6Z156); assay: SEC-MALS; Superdex 200 Increase 10/300 GL, buffer C (20 mM Tris/HCl pH 8.0, 200 mM NaCl, 1 mM TCEP) without InsP6, 2–3 mg/ml, 4 °C; both purified
[2] = biological target: PHR2^230–426 I362A (rice) (UniProt Q6Z156); assay: SEC; gel filtration, buffer C (20 mM Tris/HCl pH 8.0, 200 mM NaCl, 1 mM TCEP) without InsP6; samples incubated at 4 °C for 12 h (Fig. 1b, c); both purified
[3] = biological target: PHR2^230–426 L348A (rice) (UniProt Q6Z156); assay: SEC-MALS; Superdex 200 Increase 10/300 GL, buffer C (20 mM Tris/HCl pH 8.0, 200 mM NaCl, 1 mM TCEP) without InsP6, 2–3 mg/ml, 4 °C; both purified
[4] = biological target: PHR2^230–426 L348A (rice) (UniProt Q6Z156); assay: SEC; gel filtration, buffer C (20 mM Tris/HCl pH 8.0, 200 mM NaCl, 1 mM TCEP) without InsP6; samples incubated at 4 °C for 12 h (Fig. 1b, c); both purified
[5] = biological target: PHR2^230–426 L358A (rice) (UniProt Q6Z156); assay: SEC-MALS; Superdex 200 Increase 10/300 GL, buffer C (20 mM Tris/HCl pH 8.0, 200 mM NaCl, 1 mM TCEP) without InsP6, 2–3 mg/ml, 4 °C; both purified
[6] = biological target: PHR2^230–426 L358A (rice) (UniProt Q6Z156); assay: SEC; gel filtration, buffer C (20 mM Tris/HCl pH 8.0, 200 mM NaCl, 1 mM TCEP) without InsP6; samples incubated at 4 °C for 12 h (Fig. 1b, c); both purified
[7] = biological target: PHR2^230–426 L344R/Q351R/Q355R (rice) (UniProt Q6Z156); assay: SEC-MALS; Superdex 200 Increase 10/300 GL, buffer C (20 mM Tris/HCl pH 8.0, 200 mM NaCl, 1 mM TCEP) without InsP6, 2–3 mg/ml, 4 °C; both purified
[8] = biological target: PHR2^230–426 L344R/Q351R/Q355R (rice) (UniProt Q6Z156); assay: SEC; gel filtration, buffer C (20 mM Tris/HCl pH 8.0, 200 mM NaCl, 1 mM TCEP) without InsP6; samples incubated at 4 °C for 12 h (Fig. 1b, c); both purified
[9] = biological target: PHR2^(230–426 L348A/L358A/I362A) (rice) (UniProt Q6Z156); assay: SEC-MALS; Superdex 200 Increase 10/300 GL, buffer C (20 mM Tris/HCl pH 8.0, 200 mM NaCl, 1 mM TCEP) without InsP6, 2–3 mg/ml, 4 °C; both purified

binding [1]: no binding
binding [2]: no binding
Substance: PHR2^230–426 I362A (from UniProt Q6Z156 230-426) (domain or fragment)

binding [3]: no binding
binding [4]: no binding
Substance: PHR2^230–426 L348A (from UniProt Q6Z156 230-426) (domain or fragment)

binding [5]: no binding
binding [6]: no binding
Substance: PHR2^230–426 L358A (from UniProt Q6Z156 230-426) (domain or fragment)

binding [7]: no binding
binding [8]: no binding
Substance: PHR2^230–426 L344R/Q351R/Q355R (from UniProt Q6Z156 230-426) (domain or fragment)

binding [9]: no binding
Substance: PHR2^(230–426 L348A/L358A/I362A) (from UniProt Q6Z156 230-426) (domain or fragment)
